Assay results taken from the supplement of paper PMC10849652.
The other results are listed elsewhere or left out.

Protein sequences, listed by entry. Tags and fused reporters are not part of them. Lines headed by an entry give the natural chain unless they say otherwise; changes in a name come on top.
UniProt Q86W42: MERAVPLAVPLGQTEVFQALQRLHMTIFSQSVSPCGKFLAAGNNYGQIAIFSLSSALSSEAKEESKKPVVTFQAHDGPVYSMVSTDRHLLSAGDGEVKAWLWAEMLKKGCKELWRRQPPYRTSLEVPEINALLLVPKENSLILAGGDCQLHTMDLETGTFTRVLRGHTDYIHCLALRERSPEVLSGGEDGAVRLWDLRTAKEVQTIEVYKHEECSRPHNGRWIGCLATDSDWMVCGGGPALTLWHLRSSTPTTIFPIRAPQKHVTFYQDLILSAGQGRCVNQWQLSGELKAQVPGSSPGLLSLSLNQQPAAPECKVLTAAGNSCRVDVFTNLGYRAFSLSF
UniProt Q15170: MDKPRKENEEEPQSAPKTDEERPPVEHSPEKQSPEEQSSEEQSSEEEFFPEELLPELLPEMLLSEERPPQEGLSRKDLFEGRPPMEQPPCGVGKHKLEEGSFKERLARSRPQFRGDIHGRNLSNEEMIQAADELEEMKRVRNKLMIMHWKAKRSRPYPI
UniProt Q8IYQ7: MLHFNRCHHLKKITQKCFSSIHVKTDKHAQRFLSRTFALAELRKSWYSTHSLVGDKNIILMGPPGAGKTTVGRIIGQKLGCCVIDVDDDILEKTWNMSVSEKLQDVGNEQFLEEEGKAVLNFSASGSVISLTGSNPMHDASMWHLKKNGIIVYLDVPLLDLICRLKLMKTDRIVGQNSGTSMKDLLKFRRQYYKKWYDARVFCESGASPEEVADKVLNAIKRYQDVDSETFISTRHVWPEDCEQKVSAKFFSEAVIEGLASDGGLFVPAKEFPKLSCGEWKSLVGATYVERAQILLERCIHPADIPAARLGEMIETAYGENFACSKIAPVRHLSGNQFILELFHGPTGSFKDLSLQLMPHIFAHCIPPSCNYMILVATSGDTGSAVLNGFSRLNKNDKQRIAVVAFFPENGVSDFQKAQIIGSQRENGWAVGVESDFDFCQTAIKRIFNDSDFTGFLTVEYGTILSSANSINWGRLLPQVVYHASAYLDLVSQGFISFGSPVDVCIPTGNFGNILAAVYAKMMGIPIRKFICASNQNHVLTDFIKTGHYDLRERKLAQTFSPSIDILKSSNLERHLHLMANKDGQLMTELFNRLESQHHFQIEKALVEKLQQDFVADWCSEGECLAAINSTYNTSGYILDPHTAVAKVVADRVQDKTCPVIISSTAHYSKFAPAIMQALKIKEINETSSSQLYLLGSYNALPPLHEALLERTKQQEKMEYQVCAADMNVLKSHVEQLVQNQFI
UniProt P04183: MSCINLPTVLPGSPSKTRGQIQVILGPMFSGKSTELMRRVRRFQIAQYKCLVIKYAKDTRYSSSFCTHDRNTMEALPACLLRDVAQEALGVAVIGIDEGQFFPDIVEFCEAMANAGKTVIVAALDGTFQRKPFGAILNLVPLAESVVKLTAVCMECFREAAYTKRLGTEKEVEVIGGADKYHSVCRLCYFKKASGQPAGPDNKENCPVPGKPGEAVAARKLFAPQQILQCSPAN
UniProt Q9BVW5: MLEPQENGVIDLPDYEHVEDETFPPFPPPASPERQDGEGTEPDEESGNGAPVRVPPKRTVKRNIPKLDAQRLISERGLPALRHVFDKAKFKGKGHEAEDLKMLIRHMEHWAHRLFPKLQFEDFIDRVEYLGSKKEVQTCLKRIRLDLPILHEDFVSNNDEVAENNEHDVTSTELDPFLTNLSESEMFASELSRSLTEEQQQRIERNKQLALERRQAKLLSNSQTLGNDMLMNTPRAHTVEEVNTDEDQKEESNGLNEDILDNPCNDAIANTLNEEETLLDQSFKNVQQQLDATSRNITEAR
UniProt P52888, whole entry, looked up: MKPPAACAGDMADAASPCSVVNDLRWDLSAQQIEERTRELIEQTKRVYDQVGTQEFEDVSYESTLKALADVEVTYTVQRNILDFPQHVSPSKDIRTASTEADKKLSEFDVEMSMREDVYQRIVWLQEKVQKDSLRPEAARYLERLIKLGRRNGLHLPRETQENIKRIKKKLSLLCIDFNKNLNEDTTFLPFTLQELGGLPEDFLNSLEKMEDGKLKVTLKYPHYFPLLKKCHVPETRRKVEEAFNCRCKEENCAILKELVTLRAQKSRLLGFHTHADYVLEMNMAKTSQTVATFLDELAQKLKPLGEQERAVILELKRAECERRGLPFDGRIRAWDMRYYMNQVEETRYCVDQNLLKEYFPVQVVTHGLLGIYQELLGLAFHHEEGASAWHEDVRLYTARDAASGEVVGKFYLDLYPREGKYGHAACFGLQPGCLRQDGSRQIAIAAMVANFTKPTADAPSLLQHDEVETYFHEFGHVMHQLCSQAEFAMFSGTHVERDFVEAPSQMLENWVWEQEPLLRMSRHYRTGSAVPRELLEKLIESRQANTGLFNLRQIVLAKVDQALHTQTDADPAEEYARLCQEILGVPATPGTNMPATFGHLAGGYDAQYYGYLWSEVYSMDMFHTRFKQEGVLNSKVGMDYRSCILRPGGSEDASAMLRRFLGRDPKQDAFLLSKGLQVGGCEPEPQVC
UniProt Q12788: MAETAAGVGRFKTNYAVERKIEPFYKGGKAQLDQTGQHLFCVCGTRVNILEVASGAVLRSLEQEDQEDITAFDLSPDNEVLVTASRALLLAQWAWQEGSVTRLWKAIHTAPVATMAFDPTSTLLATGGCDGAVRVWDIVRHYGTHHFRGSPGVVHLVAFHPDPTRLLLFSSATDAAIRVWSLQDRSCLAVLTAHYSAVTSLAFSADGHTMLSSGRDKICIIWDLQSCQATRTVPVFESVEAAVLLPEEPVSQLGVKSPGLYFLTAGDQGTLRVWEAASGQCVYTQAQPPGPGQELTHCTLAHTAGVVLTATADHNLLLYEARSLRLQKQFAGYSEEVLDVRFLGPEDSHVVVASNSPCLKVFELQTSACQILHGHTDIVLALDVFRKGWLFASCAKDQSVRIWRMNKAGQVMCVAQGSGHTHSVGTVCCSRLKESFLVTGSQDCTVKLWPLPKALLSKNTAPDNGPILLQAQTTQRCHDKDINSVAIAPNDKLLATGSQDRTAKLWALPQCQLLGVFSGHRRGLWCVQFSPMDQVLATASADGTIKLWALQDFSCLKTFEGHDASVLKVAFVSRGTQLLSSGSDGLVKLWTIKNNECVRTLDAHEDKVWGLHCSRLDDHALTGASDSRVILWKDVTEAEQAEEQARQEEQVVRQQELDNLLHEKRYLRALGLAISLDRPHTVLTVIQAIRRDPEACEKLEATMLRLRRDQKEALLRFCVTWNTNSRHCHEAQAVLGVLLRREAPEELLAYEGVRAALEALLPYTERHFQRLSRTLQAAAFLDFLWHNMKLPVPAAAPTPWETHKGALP
UniProt Q9NYB0: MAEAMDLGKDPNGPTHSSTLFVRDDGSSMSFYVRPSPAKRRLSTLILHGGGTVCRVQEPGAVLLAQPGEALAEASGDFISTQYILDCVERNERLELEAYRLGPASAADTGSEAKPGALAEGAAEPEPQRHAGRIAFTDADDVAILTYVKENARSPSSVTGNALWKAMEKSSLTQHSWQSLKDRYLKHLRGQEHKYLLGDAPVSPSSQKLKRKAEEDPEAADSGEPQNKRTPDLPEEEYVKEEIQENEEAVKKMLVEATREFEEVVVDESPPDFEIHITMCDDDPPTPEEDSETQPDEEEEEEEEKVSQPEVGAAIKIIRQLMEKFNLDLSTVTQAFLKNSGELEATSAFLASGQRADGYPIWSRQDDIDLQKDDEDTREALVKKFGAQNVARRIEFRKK
UniProt Q15582: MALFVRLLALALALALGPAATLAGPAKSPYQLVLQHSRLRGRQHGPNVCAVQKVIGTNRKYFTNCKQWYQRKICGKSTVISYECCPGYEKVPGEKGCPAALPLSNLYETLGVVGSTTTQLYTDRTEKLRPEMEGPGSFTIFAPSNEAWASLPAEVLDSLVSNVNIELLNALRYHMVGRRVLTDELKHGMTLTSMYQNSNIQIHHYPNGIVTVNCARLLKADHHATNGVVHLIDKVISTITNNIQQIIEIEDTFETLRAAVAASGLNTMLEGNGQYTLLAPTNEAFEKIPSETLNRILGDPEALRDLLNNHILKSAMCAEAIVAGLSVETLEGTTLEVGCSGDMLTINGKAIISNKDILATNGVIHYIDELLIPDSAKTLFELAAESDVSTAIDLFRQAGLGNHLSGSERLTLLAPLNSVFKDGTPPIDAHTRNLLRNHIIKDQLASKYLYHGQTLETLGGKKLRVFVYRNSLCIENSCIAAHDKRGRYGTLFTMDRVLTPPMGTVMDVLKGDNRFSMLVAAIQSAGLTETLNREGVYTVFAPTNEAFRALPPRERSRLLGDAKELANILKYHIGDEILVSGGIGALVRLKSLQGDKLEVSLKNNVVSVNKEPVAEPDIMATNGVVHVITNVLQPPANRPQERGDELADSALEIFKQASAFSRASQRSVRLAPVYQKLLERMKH
UniProt Q6YHU6: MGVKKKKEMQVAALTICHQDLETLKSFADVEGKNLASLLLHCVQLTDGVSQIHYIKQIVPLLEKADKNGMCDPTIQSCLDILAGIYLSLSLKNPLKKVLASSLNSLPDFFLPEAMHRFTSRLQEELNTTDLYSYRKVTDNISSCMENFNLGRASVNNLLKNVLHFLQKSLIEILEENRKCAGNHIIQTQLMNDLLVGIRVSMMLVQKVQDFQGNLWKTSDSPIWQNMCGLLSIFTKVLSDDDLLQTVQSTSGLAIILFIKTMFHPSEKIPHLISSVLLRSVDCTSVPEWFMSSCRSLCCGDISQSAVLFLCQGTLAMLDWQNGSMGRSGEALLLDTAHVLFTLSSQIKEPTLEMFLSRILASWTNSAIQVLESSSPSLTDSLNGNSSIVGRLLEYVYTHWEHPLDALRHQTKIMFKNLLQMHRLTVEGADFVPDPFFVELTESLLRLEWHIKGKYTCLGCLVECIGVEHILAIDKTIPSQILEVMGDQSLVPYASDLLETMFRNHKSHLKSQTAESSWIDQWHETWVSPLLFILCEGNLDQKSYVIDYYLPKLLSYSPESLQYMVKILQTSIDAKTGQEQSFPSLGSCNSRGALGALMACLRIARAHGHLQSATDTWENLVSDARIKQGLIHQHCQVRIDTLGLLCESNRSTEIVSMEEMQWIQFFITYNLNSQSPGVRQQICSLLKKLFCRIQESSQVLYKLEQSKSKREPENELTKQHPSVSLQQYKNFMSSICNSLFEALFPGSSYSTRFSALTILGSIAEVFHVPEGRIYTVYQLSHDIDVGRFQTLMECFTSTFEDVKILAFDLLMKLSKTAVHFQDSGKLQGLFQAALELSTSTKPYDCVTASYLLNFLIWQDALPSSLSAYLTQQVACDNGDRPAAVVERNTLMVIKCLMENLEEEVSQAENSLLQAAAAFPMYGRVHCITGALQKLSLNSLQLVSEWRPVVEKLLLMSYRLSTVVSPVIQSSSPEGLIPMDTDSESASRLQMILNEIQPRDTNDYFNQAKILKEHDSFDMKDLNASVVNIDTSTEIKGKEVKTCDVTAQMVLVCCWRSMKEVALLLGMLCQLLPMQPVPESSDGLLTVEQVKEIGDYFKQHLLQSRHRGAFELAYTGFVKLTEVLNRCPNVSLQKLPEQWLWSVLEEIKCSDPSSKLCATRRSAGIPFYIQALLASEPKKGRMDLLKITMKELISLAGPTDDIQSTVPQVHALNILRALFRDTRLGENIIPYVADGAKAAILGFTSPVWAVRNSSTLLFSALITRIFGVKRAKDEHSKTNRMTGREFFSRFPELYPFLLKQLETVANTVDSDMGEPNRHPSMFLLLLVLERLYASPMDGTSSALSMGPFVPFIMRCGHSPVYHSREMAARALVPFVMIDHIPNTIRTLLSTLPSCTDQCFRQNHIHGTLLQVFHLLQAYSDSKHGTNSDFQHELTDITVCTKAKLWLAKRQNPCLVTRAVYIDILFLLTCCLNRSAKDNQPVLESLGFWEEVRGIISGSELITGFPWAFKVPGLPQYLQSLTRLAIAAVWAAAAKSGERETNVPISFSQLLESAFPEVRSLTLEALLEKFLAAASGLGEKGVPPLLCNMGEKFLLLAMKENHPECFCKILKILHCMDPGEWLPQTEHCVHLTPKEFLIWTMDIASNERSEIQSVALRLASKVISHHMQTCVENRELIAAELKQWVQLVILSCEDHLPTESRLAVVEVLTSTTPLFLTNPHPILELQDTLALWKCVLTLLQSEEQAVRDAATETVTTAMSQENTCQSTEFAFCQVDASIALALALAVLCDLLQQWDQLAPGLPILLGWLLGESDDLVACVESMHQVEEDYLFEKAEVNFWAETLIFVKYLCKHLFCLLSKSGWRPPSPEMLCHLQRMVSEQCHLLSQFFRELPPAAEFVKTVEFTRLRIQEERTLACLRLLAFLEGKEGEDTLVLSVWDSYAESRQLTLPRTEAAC
UniProt Q9BSF4: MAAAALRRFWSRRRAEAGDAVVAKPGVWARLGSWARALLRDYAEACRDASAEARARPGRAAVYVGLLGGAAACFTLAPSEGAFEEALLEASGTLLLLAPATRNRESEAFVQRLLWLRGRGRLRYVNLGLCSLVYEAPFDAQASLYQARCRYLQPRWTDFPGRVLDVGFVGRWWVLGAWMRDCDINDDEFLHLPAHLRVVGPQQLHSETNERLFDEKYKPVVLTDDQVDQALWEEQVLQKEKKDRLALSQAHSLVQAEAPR

Tests used:
Assay in all cases: log2 fold change, soluble protein after heating vs DMSO (PISA); higher = thermal stabilisation; K562 cells, 10 uM, 30 min; active = over 0.2 and 3.5 SD of the protein, either way, in both replicates (recomputed)
[1] = compound: CC1=C(C=C(C=C1)NC(=O)C2=CC(=CC=C2)C(C)(C)C#N)NC3=CC4=C(C=C3)N=CN(C4=O)C
Outline: (§1)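 K562 cells at 2×10^6 cells/mL were given 10 μM compound for 30 min. Aliquots then went through 3 min of heating across 48°C-58°C, were pooled, and were extracted in PBS with 0.5% NP-40 at 4°C, and the supernatant after 21,000xg for 90 min was quantified by TMTpro 16plex LC-MS/MS with channel sums equalised. Thermal stability relative to control samples, from duplicates, is given as log2 fold change.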

[2] = compound: CC1=C(C=C(C=C1)NC(=O)C2=CC(=CC=C2)N(C)C)NC(=O)C3=CC=C(C=C3)O
Outline: as §1

[3] = compound: CC1=CC=C(C=C1)SC2=C3C=C(SC3=CN=C2)C(=O)N
Outline: as §1

[4] = compound: CC1=NC(=CC=C1)C2=C(N=C(N2)C(C)(C)C)C3=CC4=NC=CN=C4C=C3
Outline: as §1

Nexturastat A = compound: CCCCN(Cc1ccc(C(=O)NO)cc1)C(=O)Nc1ccccc1 [Nexturastat A]
Outline: as §1

vemurafenib = compound: CCCS(=O)(=O)Nc1ccc(F)c(C(=O)c2c[nH]c3ncc(-c4ccc(Cl)cc4)cc23)c1F [vemurafenib]
Outline: as §1

[5] = compound: CCCS(=O)(=O)Nc1ccc(F)c(C(=O)c2c[nH]c3ncc(Cl)cc23)c1F
Outline: as §1

[6] = compound: CCCc1cc(C)[nH]c(=O)c1CNC(=O)c1cc(-c2ccnc(N3CCN(C)CC3)c2)cc2c1cnn2C(C)C
Outline: as §1

givinostat = compound: CCN(CC)Cc1ccc2cc(COC(=O)Nc3ccc(C(=O)NO)cc3)ccc2c1 [givinostat]
Outline: as §1

barasertib = compound: CCN(CCCOc1ccc2c(Nc3cc(CC(=O)Nc4cccc(F)c4)[nH]n3)ncnc2c1)CCOP(=O)(O)O [barasertib]
Outline: as §1

Measured: log2 fold change

THOC6 (UniProt Q86W42)
inactive: [1] -0.045 | [2] 0.026 | [3] 0.029 | [4] -0.004 | Nexturastat A 0.009 | vemurafenib 0.022 | [5] 0.006 | [6] 0.02 | givinostat 0.009 | barasertib 0.007

TBC1D14 (UniProt Q9P2M4)
inactive: [1] 0.053 | [2] 0.041 | [3] 0.023 | Nexturastat A -0.019 | vemurafenib 0.047 | [5] 0.013 | [6] -0.173 | givinostat 0.014

TCEAL1 isoform 2 (UniProt Q15170)
inactive: [1] -0.143 | [2] 0.126 | [3] 0.108 | [4] -0.111 | vemurafenib -0.048 | [5] -0.149

TBCA (UniProt O75347)
inactive: [1] -0.012 | [2] -0.014 | [3] 0 | [4] -0.022 | Nexturastat A -0.057 | vemurafenib -0.044 | [5] -0.089 | [6] -0.037 | givinostat -0.015 | barasertib 0.039

TGFBRAP1 (UniProt Q8WUH2)
inactive: [1] -0.058 | [2] -0.001 | [3] 0.138 | [4] 0.061 | Nexturastat A 0.107 | vemurafenib -0.055 | [5] -0.003 | [6] 0.038 | givinostat 0.092 | barasertib 0.01

THNSL1 (UniProt Q8IYQ7)
inactive: [1] 0.052 | [2] 0.003 | [3] -0.027 | [4] 0.038 | Nexturastat A -0.011 | vemurafenib 0.005 | [5] 0.029 | [6] 0.033 | givinostat -0.027 | barasertib 0.024

THOC2 (UniProt Q8NI27)
inactive: [1] 0.01 | [2] -0.012 | [3] -0.031 | [4] -0.049 | Nexturastat A 0.097 | vemurafenib -0.01 | [5] -0.031 | [6] 0.042 | givinostat 0.035 | barasertib 0

TIMP1 (UniProt P01033)
inactive: [1] 0.089 | [2] 0.01 | [3] -0.025 | [4] -0.052 | Nexturastat A -0.051 | vemurafenib -0.022 | [5] -0.076 | [6] -0.022 | givinostat -0.052 | barasertib -0.045

TK1 (UniProt P04183)
inactive: [1] -0.035 | [2] 0.001 | [3] 0.01 | [4] -0.004 | Nexturastat A 0.014 | vemurafenib 0.003 | [5] -0.012 | [6] -0.095 | givinostat 0.011 | barasertib 0.011

8 successive entries from above, quoted:
THOC6 (UniProt Q86W42)
inactive: [1] -0.045 | [2] 0.026 | [3] 0.029 | [4] -0.004 | Nexturastat A 0.009 | vemurafenib 0.022 | [5] 0.006 | [6] 0.02 | givinostat 0.009 | barasertib 0.007

TBC1D14 (UniProt Q9P2M4)
inactive: [1] 0.053 | [2] 0.041 | [3] 0.023 | Nexturastat A -0.019 | vemurafenib 0.047 | [5] 0.013 | [6] -0.173 | givinostat 0.014

TCEAL1 isoform 2 (UniProt Q15170)
inactive: [1] -0.143 | [2] 0.126 | [3] 0.108 | [4] -0.111 | vemurafenib -0.048 | [5] -0.149

TBCA (UniProt O75347)
inactive: [1] -0.012 | [2] -0.014 | [3] 0 | [4] -0.022 | Nexturastat A -0.057 | vemurafenib -0.044 | [5] -0.089 | [6] -0.037 | givinostat -0.015 | barasertib 0.039

TGFBRAP1 (UniProt Q8WUH2)
inactive: [1] -0.058 | [2] -0.001 | [3] 0.138 | [4] 0.061 | Nexturastat A 0.107 | vemurafenib -0.055 | [5] -0.003 | [6] 0.038 | givinostat 0.092 | barasertib 0.01

THNSL1 (UniProt Q8IYQ7)
inactive: [1] 0.052 | [2] 0.003 | [3] -0.027 | [4] 0.038 | Nexturastat A -0.011 | vemurafenib 0.005 | [5] 0.029 | [6] 0.033 | givinostat -0.027 | barasertib 0.024

THOC2 (UniProt Q8NI27)
inactive: [1] 0.01 | [2] -0.012 | [3] -0.031 | [4] -0.049 | Nexturastat A 0.097 | vemurafenib -0.01 | [5] -0.031 | [6] 0.042 | givinostat 0.035 | barasertib 0

TIMP1 (UniProt P01033)
inactive: [1] 0.089 | [2] 0.01 | [3] -0.025 | [4] -0.052 | Nexturastat A -0.051 | vemurafenib -0.022 | [5] -0.076 | [6] -0.022 | givinostat -0.052 | barasertib -0.045

Next part.

TIPIN (UniProt Q9BVW5)
inactive: [1] -0.118 | [3] -0.075 | [4] 0.005 | Nexturastat A -0.021 | vemurafenib -0.034 | [5] -0.117 | [6] -0.03 | givinostat -0.059 | barasertib 0.047

TGFBR1 isoform 2 (UniProt P36897)
inactive: [1] -0.112 | [2] 0.023 | [3] -0.058 | Nexturastat A 0.038 | vemurafenib 0.044 | [5] 0.028 | [6] -0.062 | givinostat 0.07 | barasertib -0.028

TK1 (UniProt K7ERV3)
inactive: [1] -0.185 | [2] -0.055 | [3] -0.273 | Nexturastat A -0.178 | vemurafenib -0.077 | [5] -0.009 | [6] -0.149 | barasertib 0.088

TIMMDC1 (UniProt Q9NPL8)
inactive: [1] -0.015 | [2] -0.061 | [3] 0.09 | [4] 0.023 | Nexturastat A 0.008 | vemurafenib -0.072 | [5] -0.029 | [6] 0.041 | givinostat -0.002 | barasertib -0.025

TFCP2 (UniProt Q12800)
inactive: [1] 0.206 | [2] -0.068 | [4] -0.215 | Nexturastat A 0.173 | givinostat 0.207 | barasertib 0.001

TF (UniProt P02787)
inactive: [1] -0.096 | [2] 0.665 | [3] 0.17 | [4] 0.111 | Nexturastat A 0 | vemurafenib 0.092 | [5] -0.204 | [6] -0.216 | givinostat -0.196 | barasertib -0.139

TGFBR3 (UniProt Q03167)
inactive: [1] -0.007 | [2] -0.064 | [3] 0.042 | [4] -0.028 | Nexturastat A 0.064 | vemurafenib 0.104 | [5] 0.013 | [6] -0.014 | givinostat 0.034 | barasertib -0.02

THOP1 (UniProt P52888)
inactive: [1] 0.014 | [2] -0.004 | [3] 0.013 | [4] 0.026 | Nexturastat A -0.018 | vemurafenib -0.005 | [5] 0.002 | [6] -0.007 | givinostat -0.005 | barasertib -0.012

TBL3 (UniProt Q12788)
inactive: [1] 0.028 | [2] -0.03 | [3] -0.024 | [4] -0.016 | Nexturastat A 0.246 | vemurafenib -0.011 | [5] 0 | [6] 0.054 | givinostat -0.038 | barasertib -0.038

TERF2IP (UniProt Q9NYB0)
inactive: [1] -0.023 | [2] -0.012 | [3] 0.02 | [4] 0.013 | Nexturastat A 0.057 | vemurafenib 0.184 | [5] 0.001 | [6] -0.017 | givinostat -0.009 | barasertib 0.021

TGFBI (UniProt Q15582)
inactive: [1] -0.167 | [2] 0.101 | [3] 0.062 | [4] 0.091 | Nexturastat A -0.082 | vemurafenib 0.157 | [5] -0.044 | [6] -0.255 | givinostat -0.08 | barasertib 0.068

TBC1D17 (UniProt Q9HA65)
inactive: [1] -0.27 | [2] 0.035 | vemurafenib -0.089 | [6] -0.042 | givinostat 0.028 | barasertib -0.327

TGFB1 (UniProt P01137)
inactive: [1] -0.027 | [2] 0.028 | [3] -0.004 | [4] 0.019 | Nexturastat A -0.005 | vemurafenib -0.016 | [5] -0.003 | [6] -0.04 | givinostat -0.002 | barasertib -0.03

THADA (UniProt Q6YHU6)
inactive: [1] 0.03 | [2] -0.038 | [3] 0.019 | [4] -0.01 | Nexturastat A -0.021 | vemurafenib 0.038 | [5] 0.06 | [6] 0.039 | givinostat -0.006 | barasertib 0.07

TENT5C (UniProt Q5VWP2)
inactive: [1] -0.011 | [2] 0.037 | [3] -0.019 | [4] 0.088 | vemurafenib 0.097 | [5] 0.005 | [6] -0.137 | givinostat 0.014 | barasertib 0.01

TIMM10B (UniProt Q9Y5J6)
inactive: [1] -0.053 | [2] -0.075 | [3] 0.018 | Nexturastat A -0.05 | vemurafenib 0.073 | [5] -0.077 | [6] -0.057 | givinostat 0.061 | barasertib 0.067

THEM4 (UniProt Q5T1C6)
inactive: [1] 0.021 | [2] -0.021 | [3] 0.022 | [4] -0.009 | Nexturastat A -0.084 | vemurafenib 0.018 | [5] -0.043 | [6] 0.01 | givinostat -0.005 | barasertib 0.001

TIMM29 (UniProt Q9BSF4)
inactive: [1] -0.007 | [2] -0.015 | [3] -0.023 | [4] -0.102 | Nexturastat A -0.037 | vemurafenib -0.031 | [5] 0.033 | [6] 0 | givinostat 0.014 | barasertib 0.004

TFR2 (UniProt Q9UP52)
inactive: [1] 0.012 | [2] -0.018 | [3] -0.012 | [4] -0.036 | Nexturastat A -0.031 | vemurafenib -0.018 | [5] -0.003 | [6] -0.029 | givinostat -0.083 | barasertib 0.01

TDRD15 (UniProt B5MCY1)
inactive: [1] -0.309 | [2] -0.293 | vemurafenib -0.066 | [6] -0.093 | givinostat 0.035

TC2N (UniProt Q8N9U0)
inactive: [2] 0.077 | vemurafenib 0.063 | [6] -0.098

TGM2 (UniProt A2A299)
inactive: [2] -0.084 | [3] -0.023 | vemurafenib -0.153 | [5] 0.054 | [6] -0.604 | givinostat 0.129

TCAF2 (UniProt A6NFQ2)
inactive: [2] -0.282 | [4] -0.028 | Nexturastat A -0.078
